This is an account of results in paper PMC12199405.

By UniProt entry, the sequences of proteins in these tests, tags left out.
UniProt P28033: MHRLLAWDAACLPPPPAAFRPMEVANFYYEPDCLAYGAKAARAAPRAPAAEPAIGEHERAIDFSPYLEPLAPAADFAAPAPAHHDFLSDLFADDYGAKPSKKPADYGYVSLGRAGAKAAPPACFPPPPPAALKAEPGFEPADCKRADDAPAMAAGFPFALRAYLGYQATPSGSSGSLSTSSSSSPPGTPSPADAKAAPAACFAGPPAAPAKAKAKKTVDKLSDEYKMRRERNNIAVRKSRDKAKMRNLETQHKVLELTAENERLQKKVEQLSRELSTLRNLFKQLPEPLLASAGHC

Results are given in words; binding and its absence hold for the method and conditions named. In cells and extracts the contact can be indirect. These calls come from enrichment with a bait or labelling near it, and not all partners need be listed.

The target in the experiment is CCAAT/enhancer-binding protein beta (C/EBPβ) (mouse (endogenous in BV2)) (UniProt P28033). As to the kind of experiment: affinity purification with mass spectrometry; nuclear proteins of BV2 cells, reciprocal immunoprecipitation with a C/EBPβ antibody (control IgG), protein A/G magnetic beads, five washes with IP lysis buffer, eluate identified by LC-MS/MS.

B1: p21 (coded by Cdkn1a) (protein, UniProt P39689 1-159)
chain: MSNPGDVRPVPHRSKVCRCLFGPVDSEQLRRDCDALMAGCLQEARERWNFDFVTETPLEGNFVWERVRSLGLPKVYLSPGSRSRDDLGGDKRPSTSSALLQGPAPEDHVALSLSCTLVSERPEDSPGGPGTSQGRKRRQTSLTDFYHSKRRLVFCKRKP
As to B1, the binding entry is “binds”.
